Values from PubChem BioAssay AID743454 (Peter MacCallum Cancer Centre, 2014)
Screen: 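Knock-downs lowering viability or raising caspase 3/7 activity in vorinostat-treated resistant cells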 (primary screen). Cell system: human HCT116-VR colon cancer cells, selected for vorinostat resistance. Knock-down reagent: siRNA pool against human genes, 40 nM siRNA pool. Time to read-out: vorinostat for 24 h, read-out about 72 h after transfection. Treatment: vorinostat at 2.5 µM final. Measured: 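Two measures, CellTiter-Fluor viability and luminescent caspase 3/7 activity, each as fold change against same-plate mock wells, mean of duplicates, then screen-wide robust z-score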. Scale: viability robust z-score: higher = more viable cells than screen typical; caspase robust z-score: higher = more caspase 3/7 activity than screen typical. Hit rule: 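Hits are knock-downs in viability class RV1/RV2 or caspase class CA1/CA2, excluding ones that killed cells in the no-drug cell-count arm; hits then retested with single siRNAs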.
The deposit covers about 18,000 reagents; this is a random part of them. 450 of them (2.5%) count as active. 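Single biological run; no consistent viability z cut-off exists, so the class columns, not z-scores, define the calls.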

The opening 2 entries, to show the layout:
| Target gene | viability hit class | caspase hit class | viability robust z-score | caspase robust z-score | Outcome |
| --- | --- | --- | --- | --- | --- |
| PAF1 | no change | no change | -2.14 | 3.91 | inactive |
| TMEM11 | no change | no change | -1.93 | 0.38 | inactive |

The list itself, from the first entry:
| Target gene | viability hit class | caspase hit class | viability robust z-score | caspase robust z-score | Outcome |
| --- | --- | --- | --- | --- | --- |
| PAF1 | no change | no change | -2.14 | 3.91 | inactive |
| TMEM11 | no change | no change | -1.93 | 0.38 | inactive |
| RBBP4 | no change | no change | -0.32 | 0.51 | inactive |
| UGT1A1 | no change | no change | 0.24 | 0.76 | inactive |
| ELL | no change | no change | 0.24 | -0.22 | inactive |
| CDIN1 | no change | no change | -1.5 | 1.33 | inactive |
| ZNF558 | no change | no change | 0.04 | -0.42 | inactive |
| HHEX | no change | CA1 (caspase activation) | -1 | 8.1 | active |
| FBXO21 | no change | no change | -0.1 | 0.7 | inactive |
| RCOR2 | no change | no change | 0.15 | 2.01 | inactive |
| KRT86 | no change | no change | 0.28 | 1.47 | inactive |
| PLAAT2 | no change | no change | -0.3 | 3.73 | inactive |
| AMZ1 | no change | no change | -1.49 | -0.03 | inactive |
| FIGNL2 | no change | no change | 0.44 | 0.53 | inactive |
| PROX1 | no change | no change | 0.33 | 2.68 | inactive |
| TBC1D31 | no change | no change | 0.78 | -0.56 | inactive |
| SLC10A3 | no change | CA1 (caspase activation) | -1.66 | 7.27 | active |
| CCT3 | no change | no change | -1.78 | 2.09 | inactive |
| CCR5 | no change | no change | 0.09 | 2.05 | inactive |
| ATL1 | no change | no change | 0.32 | 0.6 | inactive |
| MYO1D | no change | no change | -0.04 | 0.71 | inactive |
| ARMC12 | no change | no change | -0.74 | -0.36 | inactive |
| CZIB | no change | no change | 0.45 | -1.04 | inactive |
